Experimental data published in patent US11401277B2, “Anti-bacterial heterocyclic compounds and their synthesis” (Bugworks Research, Inc., priority 2017, dated 2022).
≈ marks a conversion by molar mass, not a printed value.

How the values were obtained:
Assay in all cases: MIC studies in LB Media
Type in all cases: cell-based
A. baumannii ATCC 19606 = details: Acinetobacter baumannii, ATCC19606, read-out: Minimum Inhibitory Concentration in LB Media, A. ba
Experimental: (§1) Bacterial cultures that were stored as glycerol stocks at −80° C. were sub cultured on LB agar plates to obtain isolated colonies. A single colony of each strain was cultured in LB broth. The cultures were incubated at 37° C., 200 rpm till they reach an optical density (OD at 600 nm) of 0.8 to 1. […] Test compounds were dissolved in dimethyl sulfoxide (DMSO) to a stock concentration of 4 mg/ml. A two-fold dilution series of this DMSO stock was prepared in a 96 well V bottom microtitre plate from rows A to H. A 3 μL volume of these dilutions were transferred to a 96-well flat bottom microtitre assay plate. Controls to monitor the effects of DMSO and media sterility were included. Each well was inoculated with 150 μL of the above diluted culture. The plates were incubated at 37° C. overnight in a humidified incubator. The following morning, the plates were read using a Spectrophotometer at 600 nm wavelength.

[1] = tested on: Citrobacter freundii ATCC 43864; details: ATCC43864, read-out: Minimum Inhibitory Concentration in LB Media, C. fr
Experimental: as §1

E. coli ATCC 25922 = details: Escherichia coli, ATCC25922, read-out: Minimum Inhibitory Concentration in LB Media, E. co
Experimental: as §1

E. faecalis ATCC 29212 = details: Enterococcus faecalis, ATCC29212, read-out: Minimum Inhibitory Concentration in LB Media, E. fa
Experimental: as §1

[2] = tested on: Morganella morganii ATCC 25830; details: ATCC25830, read-out: Minimum Inhibitory Concentration in LB Media, M. mo
Experimental: as §1

S. aureus ATCC 29213 = details: Staphylococcus aureus, ATCC29213, MIC = 90% inhibition of growth, read-out: Minimum Inhibitory Concentration in LB Media, S. au
Experimental: as §1

Structure (SMILES): O=C(O)c1cn(C2CC2)c2cc(N3CCNCC3)c(F)cc2c1=O [Ciprofloxacin, ciprofloxacin, reference compound]
- MIC (A. baumannii ATCC 19606): 0.4 µg/mL (≈ 1.21 µM)
- MIC [1]: ≤ 0.006 µg/mL
- MIC (E. coli ATCC 25922): 0.012 µg/mL (≈ 0.0362 µM)
- MIC (E. faecalis ATCC 29212): 0.4 µg/mL (≈ 1.21 µM)
- MIC [2]: ≤ 0.006 µg/mL
- MIC (S. aureus ATCC 29213): 0.4 µg/mL (≈ 1.21 µM)
